From paper doi:10.1101/679803
No constants are given. Whether binding was seen depends on the method and setting. In cells and extracts the contact can be indirect. A result given as binding can be weak or reduced; the word gives no strength.

B1: AtSERK1 (receptor, UniProt Q94AG2 27-625)
chain: NLEGDALHTLRVTLVDPNNVLQSWDPTLVNPCTWFHVTCNNENSVIRVDLGNAELSGHLVPELGVLKNLQYLELYSNNITGPIPSNLGNLTNLVSLDLYLNSFSGPIPESLGKLSKLRFLRLNNNSLTGSIPMSLTNITTLQVLDLSNNRLSGSVPDNGSFSLFTPISFANNLDLCGPVTSHPCPGSPPFSPPPPFIQPPPVSTPSGYGITGAIAGGVAAGAALLFAAPAIAFAWWRRRKPLDIFFDVPAEEDPEVHLGQLKRFSLRELQVASDGFSNKNILGRGGFGKVYKGRLADGTLVAVKRLKEERTPGGELQFQTEVEMISMAVHRNLLRLRGFCMTPTERLLVYPYMANGSVASCLRERPPSQPPLDWPTRKRIALGSARGLSYLHDHCDPKIIHRDVKAANILLDEEFEAVVGDFGLAKLMDYKDTHVTTAVRGTIGHIAPEYLSTGKSSEKTDVFGYGIMLLELITGQRAFDLARLANDDDVMLLDWVKGLLKEKKLEMLVDPDLQTNYEERELEQVIQVALLCTQGSPMERPKMSEVVRMLEGDGLAEKWDEWQKVEILREEIDLSPNPNSDWILDSTYNLHAVELSGPR
B2: AtSERK2 (receptor, UniProt Q9XIC7 30-628)
chain: NMEGDALHSLRANLVDPNNVLQSWDPTLVNPCTWFHVTCNNENSVIRVDLGNADLSGQLVPQLGQLKNLQYLELYSNNITGPVPSDLGNLTNLVSLDLYLNSFTGPIPDSLGKLFKLRFLRLNNNSLTGPIPMSLTNIMTLQVLDLSNNRLSGSVPDNGSFSLFTPISFANNLDLCGPVTSRPCPGSPPFSPPPPFIPPPIVPTPGGYSATGAIAGGVAAGAALLFAAPALAFAWWRRRKPQEFFFDVPAEEDPEVHLGQLKRFSLRELQVATDSFSNKNILGRGGFGKVYKGRLADGTLVAVKRLKEERTPGGELQFQTEVEMISMAVHRNLLRLRGFCMTPTERLLVYPYMANGSVASCLRERPPSQLPLAWSIRQQIALGSARGLSYLHDHCDPKIIHRDVKAANILLDEEFEAVVGDFGLARLMDYKDTHVTTAVRGTIGHIAPEYLSTGKSSEKTDVFGYGIMLLELITGQRAFDLARLANDDDVMLLDWVKGLLKEKKLEMLVDPDLQSNYTEAEVEQLIQVALLCTQSSPMERPKMSEVVRMLEGDGLAEKWDEWQKVEVLRQEVELSSHPTSDWILDSTDNLHAMELSGPR
B3: AtSERK3 (receptor, UniProt Q94F62 26-615)
chain: NAEGDALSALKNSLADPNKVLQSWDATLVTPCTWFHVTCNSDNSVTRVDLGNANLSGQLVMQLGQLPNLQYLELYSNNITGTIPEQLGNLTELVSLDLYLNNLSGPIPSTLGRLKKLRFLRLNNNSLSGEIPRSLTAVLTLQVLDLSNNPLTGDIPVNGSFSLFTPISFANTKLTPLPASPPPPISPTPPSPAGSNRITGAIAGGVAAGAALLFAVPAIALAWWRRKKPQDHFFDVPAEEDPEVHLGQLKRFSLRELQVASDNFSNKNILGRGGFGKVYKGRLADGTLVAVKRLKEERTQGGELQFQTEVEMISMAVHRNLLRLRGFCMTPTERLLVYPYMANGSVASCLRERPESQPPLDWPKRQRIALGSARGLAYLHDHCDPKIIHRDVKAANILLDEEFEAVVGDFGLAKLMDYKDTHVTTAVRGTIGHIAPEYLSTGKSSEKTDVFGYGVMLLELITGQRAFDLARLANDDDVMLLDWVKGLLKEKKLEALVDVDLQGNYKDEEVEQLIQVALLCTQSSPMERPKMSEVVRMLEGDGLAERWEEWQKEEMFRQDFNYPTHHPAVSGWIIGDSTSQIENEYPSGPR
B4: AtSERK4 (receptor, UniProt Q9SKG5 34-620)
chain: DALTQLKNSLSSGDPANNVLQSWDATLVTPCTWFHVTCNPENKVTRVDLGNAKLSGKLVPELGQLLNLQYLELYSNNITGEIPEELGDLVELVSLDLYANSISGPIPSSLGKLGKLRFLRLNNNSLSGEIPMTLTSVQLQVLDISNNRLSGDIPVNGSFSLFTPISFANNSLTDLPEPPPTSTSPTPPPPSGGQMTAAIAGGVAAGAALLFAVPAIAFAWWLRRKPQDHFFDVPAEEDPEVHLGQLKRFTLRELLVATDNFSNKNVLGRGGFGKVYKGRLADGNLVAVKRLKEERTKGGELQFQTEVEMISMAVHRNLLRLRGFCMTPTERLLVYPYMANGSVASCLRERPEGNPALDWPKRKHIALGSARGLAYLHDHCDQKIIHRDVKAANILLDEEFEAVVGDFGLAKLMNYNDSHVTTAVRGTIGHIAPEYLSTGKSSEKTDVFGYGVMLLELITGQKAFDLARLANDDDIMLLDWVKEVLKEKKLESLVDAELEGKYVETEVEQLIQMALLCTQSSAMERPKMSEVVRMLEGDGLAERWEEWQKEEMPIHDFNYQAYPHAGTDWLIPYSNSLIENDYPSGPR

Biological target: inceptin receptor INR-Vu (Vigun07g219600) (cowpea (Vigna unguiculata))
Test: co-IP

Binder | binding
B1 | binds
B2 | binds
B3 | binds
B4 | binds
